This is an account of results in the supplement of paper PMC3682954.

Each structure is given as a SMILES string. Where a name gives a salt, the structure may show the parent alone. ± gives the standard deviation of the averaged measurements. The list shows a part of the results. Repeats are few or missing, and single values can be far off.

The subject of the experiment is RAW 264.7. Kind of experiment: cell viability (MTT) relative to vehicle control; higher = more viable cells. The settings on record: stimulus: HMGB1 5 ug/ml, 18 h.
The mark [1] stands for this setting: compound concentration: 1 ug/ml.

Turning to `NCCCCCC(=O)O` [Aminocaproic acid], the cell viability (in general, a read-out of living cells in per cent, often relative to untreated cells) (compound concentration: 3 uM) was found to be 101%.

Take `NCCCCCC(=O)O`: for the setting “compound concentration: 3 uM”, the cell viability came out at 105%.

Consider `CC(=O)[C@@]1(O)CC[C@H]2[C@@H]3CCC4=CC(=O)CC[C@]4(C)[C@H]3CC[C@@]21C`, for which the cell viability (compound concentration: 3 uM) stood at 113%.

For the compound `NC1(C(=O)O)CC1` [1-Aminocyclopropanecarboxylic acid hydrochloride], the cell viability (compound concentration: 3 uM) came to 102%.

In the case of `CCN(CC)C(=O)c1ccc(O)c(OC)c1` [Vanillic acid diethylamide], for the setting “compound concentration: 3 uM”, the cell viability is 96.5%.

Take `CCN(CC)C(=O)c1ccc(O)c(OC)c1`: for the setting “compound concentration: 3 uM”, the cell viability came out at 95.5%.

Turning to `CCN(CC)C(=O)c1ccc(O)c(OC)c1` [Ethamivan], for the setting “compound concentration: 3 uM”, the cell viability is 97.3%.

Turning to `O=C(c1ccc(F)cc1)C1CCN(CCn2c(=O)[nH]c3ccccc3c2=O)CC1`, the cell viability (compound concentration: 3 uM) turned out to be 114%.

`O=C(c1ccc(F)cc1)C1CCN(CCn2c(=O)[nH]c3ccccc3c2=O)CC1` [Ketanserin tartrate hydrate]: under “compound concentration: 3 uM”, the cell viability is 107%.

With `O=C(c1ccc(F)cc1)C1CCN(CCn2c(=O)[nH]c3ccccc3c2=O)CC1` [Ketanserin tartrate], the cell viability (compound concentration: 3 uM) was 123%.

Consider `O=C(c1ccc(F)cc1)C1CCN(CCn2c(=O)[nH]c3ccccc3c2=O)CC1` [Ketanserin], for which the cell viability (compound concentration: 3 uM) was determined as 99.8%.

On to `C[C@H]1[C@H](C)CC[C@]2(C(=O)O)CC[C@]3(C)C(=CC[C@@H]4[C@@]5(C)CC[C@H](O)C(C)(C)[C@@H]5CC[C@]43C)[C@H]12` [Ursolic acid], for which the cell viability under setting [1] worked out at 93.8%.

With `Cc1cc2nc3c(=O)[nH]c(=O)nc-3n(C[C@H](O)[C@H](O)[C@H](O)CO)c2cc1C`, the cell viability (compound concentration: 3 uM) was found to be 105%.

In the case of `O=C(CCCCCN1CCN(c2ccccc2-c2ccccc2)CC1)NC1CCCc2ccccc21` (stereo unspecified) [LP 12 hydrochloride hydrate], the cell viability (compound concentration: 3 uM) is 93%.

For `CCCOc1ccc2[nH]c(NC(=O)OC)nc2c1` [Oxibendazole], the cell viability (compound concentration: 3 uM) is 81.1%.

As for `CCCOc1ccc2[nH]c(NC(=O)OC)nc2c1` [Oxibendazol], where the note is “compound concentration: 3 uM”, the cell viability worked out at 76.3%.

With `CCCOc1ccc2[nH]c(NC(=O)OC)nc2c1`, the cell viability (compound concentration: 3 uM) is 73.4%.

Turning to `O=C(O)CCc1ccc(NCc2cccc(Oc3ccccc3)c2)cc1`, the cell viability (compound concentration: 3 uM) came to 105%.

In the case of `Cc1[nH]cnc1CN1CCc2c(c3ccccc3n2C)C1=O`, the cell viability (compound concentration: 3 uM) stood at 99.2%.

For `O=C1NC(=O)c2cc(Nc3ccccc3)c(Nc3ccccc3)cc21`, the cell viability (compound concentration: 3 uM) was determined as 94.3%.

As to `CCCCCC(=O)OC1(C(C)=O)CCC2C3CCC4=CC(=O)CCC4(C)C3CCC21C` (stereo unspecified) [17a-Hydroxyprogesterone hexanoate], the cell viability under setting [1] was 114%.

In the case of `Clc1ccc2c(c1)CCc1cccnc1C2=C1CCNCC1` [Desloratadine], the cell viability (compound concentration: 3 uM) came out at 104 ± 6.7%.

As for `Clc1ccc2c(c1)CCc1cccnc1C2=C1CCNCC1`, the cell viability (compound concentration: 3 uM) was 97.5%.

For `O=C1NCC2(CCN(CCc3ccccc3)CC2)O1` [Fenspiride hydrochloride], under “compound concentration: 3 uM”, the cell viability was determined as 105.89 ± 0.014%.

As for `O=C1NCC2(CCN(CCc3ccccc3)CC2)O1`, the cell viability (compound concentration: 3 uM) was 111%.

For `Cl.N[C@@H](CCC(=O)O)C(=O)O` [L-Glutamic acid hydrochloride], the cell viability (compound concentration: 3 uM) was 107%.

As to `CN(C)CCOC(c1ccccc1)c1ccccc1.Cn1c(=O)c2[nH]c(Cl)nc2n(C)c1=O` [Dimenhydrinate], where the note is “compound concentration: 3 uM”, the cell viability stood at 102%.

As for `CN(C)CCOC(c1ccccc1)c1ccccc1.Cn1c(=O)c2[nH]c(Cl)nc2n(C)c1=O`, the cell viability (compound concentration: 3 uM) was found to be 96%.

`CN(CCCN1c2ccccc2CCc2ccccc21)CC(=O)c1ccc(Cl)cc1`: where the note is “compound concentration: 3 uM”, the cell viability came out at 100%.

As to `CSC(=N)N` [S-Methylisothiourea hemisulfate], the cell viability (compound concentration: 3 uM) is 102%.

`C[C@@](Cc1ccc(O)c(O)c1)(NN)C(=O)O` [Carbidopa]: under “compound concentration: 3 uM”, the cell viability is 108 ± 3.5%.

Take `C[C@@](Cc1ccc(O)c(O)c1)(NN)C(=O)O`: under “compound concentration: 3 uM”, the cell viability came to 104%.

On to `CCOc1nc2cccc(C(=O)O)c2n1Cc1ccc(-c2ccccc2-c2nnn[nH]2)cc1` [Candesartan], for which, for the setting “compound concentration: 3 uM”, the cell viability worked out at 99.5 ± 15%.

`NC[C@@H]1O[C@H](C23CC4CC(CC(C4)C2)C3)Cc2c1ccc(O)c2O`: the cell viability (compound concentration: 3 uM) worked out at 106%.

As for `CC[C@H](C)[C@H](N)C(=O)O` [L-Isoleucine], the cell viability under setting [1] was 89%.

Regarding `Nc1ncnc2c1ncn2[C@@H]1O[C@H](CO)[C@@H](O)[C@@H]1O`, the cell viability (compound concentration: 3 uM) amounted to 103%.

For `Nc1ncnc2c1ncn2[C@@H]1O[C@H](CO)[C@@H](O)[C@@H]1O` [Vidarabine], the cell viability (compound concentration: 3 uM) was 114 ± 13%.

Consider `CC1CCN(CC[C@H]2CCCN2S(=O)(=O)c2cccc(O)c2)CC1`, for which, where the note is “compound concentration: 3 uM”, the cell viability came to 123%.

Take `CCC1(c2ccccc2)C(=O)NCNC1=O` [Primidone]: the cell viability (compound concentration: 3 uM) is 107 ± 1.5%.

For `CCC1(c2ccccc2)C(=O)NCNC1=O`, the cell viability (compound concentration: 3 uM) was 107%.

As to `N#Cc1ccc2c(c1)N(CCCN1CCC(O)CC1)c1ccccc1S2`, where the note is “compound concentration: 3 uM”, the cell viability was 108%.

`CC(C)(S)C(N)C(=O)O` (single isomer, unassigned; (+)) [(+)-Penicillamine]: the cell viability under setting [1] amounted to 108%.

In the case of `COc1cc(OC)c2c(C)cc(=O)oc2c1` [5,7-Dimethoxy-4-methylcoumarin], under setting [1], the cell viability turned out to be 119%.

For the compound `CC(=O)OC[C@H]1O[C@@H]([S-])[C@H](OC(C)=O)[C@@H](OC(C)=O)[C@@H]1OC(C)=O.CCP(CC)CC.[Au+]` [Auranofin], the cell viability (compound concentration: 3 uM) stood at 5.12 ± 2%.

Consider `c1ccc(-c2ccc(C(c3ccccc3)n3ccnc3)cc2)cc1` (stereo unspecified) [Bifonazole], for which, for the setting “compound concentration: 3 uM”, the cell viability was found to be 103 ± 2.5%.

For `c1ccc(-c2ccc(C(c3ccccc3)n3ccnc3)cc2)cc1` (stereo unspecified), the cell viability (compound concentration: 3 uM) worked out at 106 ± 5.3%.
